The list shows a part of the results. Single values are uncertain, as repeats are few or missing.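 Imaging used 1,536-well plates; nuclei positive for cleaved PARP by antibody were divided by total DNA-stained nuclei to yield the apoptosis fraction. Doses for screening kept most cells viable, and cell lines differ markedly in resting and induced cleaved-PARP levels.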

This assay relates to CBRC034 (line from a melanoma biopsy). The assay is described as follows: cleaved PARP positive nuclei fraction relative to DMSO control; melanoma cells; higher = more apoptosis. The settings on record: library dose: low library concentration; 72 h.
For the compound `C=CCn1c(=O)c2cnc(Nc3ccc(N4CCN(C)CC4)cc3)nc2n1-c1cccc(C(C)(C)O)n1` + O=C(Oc1ccc([N+](=O)[O-])cc1)N1CCC(C(O)(c2ccc3c(c2)OCO3)c2ccc3c(c2)OCO3)CC1 [JZL184] (first compound 0.02 µM, partner dose 1 µM), the “cleaved PARP positive nuclei fraction” value amounted to 107%.
`C/C(O)=C(\C#N)C(=O)Nc1cc(Br)ccc1Br` + c1cc(-c2cnn3cc(-c4ccc(OCCN5CCCCC5)cc4)cnc23)ccn1 [Dorsomorphin] (first compound 2 µM, partner dose 0.4 µM): the “cleaved PARP positive nuclei fraction” value was determined as 98.5%.
With `C/C(O)=C(\C#N)C(=O)Nc1cc(Br)ccc1Br` + O=C(Oc1ccc([N+](=O)[O-])cc1)N1CCC(C(O)(c2ccc3c(c2)OCO3)c2ccc3c(c2)OCO3)CC1 [JZL184] (first compound 2 µM, partner dose 1 µM), the “cleaved PARP positive nuclei fraction” value was found to be 43.3%.
To `Cc1cc(SCc2sc(-c3ccc(C(F)(F)F)c(F)c3)nc2C)ccc1OCC(=O)O` + O=C1NC(=O)/C(=C/c2ccc(-c3ccc(F)cc3O)o2)S1 [AS252424] (first compound 2 µM, partner dose 1 µM) belongs 47.9%.
For the compound `CCc1ccc(CCOc2ccc(CC3SC(=O)NC3=O)cc2)nc1` (stereo unspecified) [pioglitazone] + Cc1cc(SCc2sc(-c3ccc(C(F)(F)F)c(F)c3)nc2C)ccc1OCC(=O)O [GW0742] (first compound 2 µM, partner dose 2 µM), the “cleaved PARP positive nuclei fraction” value is 65.9%.
Take `COc1ccc2c(c1)CCC1C2CCC2(C)C(NCCCCCCN3C(=O)C=CC3=O)CCC12` (stereo unspecified) + O=C(Oc1ccc([N+](=O)[O-])cc1)N1CCC(C(O)(c2ccc3c(c2)OCO3)c2ccc3c(c2)OCO3)CC1 [JZL184] (first compound 0.4 µM, partner dose 1 µM): the “cleaved PARP positive nuclei fraction” value amounted to 104%.
To `Cc1cc(SCc2sc(-c3ccc(C(F)(F)F)c(F)c3)nc2C)ccc1OCC(=O)O` + O=C(Oc1ccc([N+](=O)[O-])cc1)N1CCC(C(O)(c2ccc3c(c2)OCO3)c2ccc3c(c2)OCO3)CC1 [JZL184] (first compound 2 µM, partner dose 1 µM) belongs 83.9%.
On to `C/C(O)=C(\C#N)C(=O)Nc1cc(Br)ccc1Br` + Cc1cc([N+](=O)[O-])ccc1NS(=O)(=O)c1cc(Cl)ccc1Cl [FH535] (first compound 2 µM, partner dose 1 µM), for which the “cleaved PARP positive nuclei fraction” value is 1010%.
Turning to `NCC(=O)Nc1ccc(-n2nc(C(F)(F)F)cc2-c2ccc3c(ccc4ccccc43)c2)cc1` + O=C(Oc1ccc([N+](=O)[O-])cc1)N1CCC(C(O)(c2ccc3c(c2)OCO3)c2ccc3c(c2)OCO3)CC1 [JZL184] (first compound 1 µM, partner dose 1 µM), the “cleaved PARP positive nuclei fraction” value was determined as 80.4%.
To `O=C(O)C(=O)Nc1sc2c(c1C(=O)O)CCNC2` + C/C(O)=C(\C#N)C(=O)Nc1cc(Br)ccc1Br [LFM-A13] (first compound 1.66667 µM, partner dose 2 µM) belongs 191%; to `COc1ccc2c(c1)CCC1C2CCC2(C)C(NCCCCCCN3C(=O)C=CC3=O)CCC12` (stereo unspecified) + Cc1cc(SCc2sc(-c3ccc(C(F)(F)F)c(F)c3)nc2C)ccc1OCC(=O)O [GW0742] (first compound 0.4 µM, partner dose 2 µM), 30.6%.
Consider `Cc1ccc(NC(=O)c2cccc(N(C)C)c2)cc1NC(=O)c1ccc(O)cc1` + C/C(O)=C(\C#N)C(=O)Nc1cc(Br)ccc1Br [LFM-A13] (first compound 2 µM, partner dose 2 µM), for which the “cleaved PARP positive nuclei fraction” value was determined as 92.9%.
Take `O=C(Oc1ccc([N+](=O)[O-])cc1)N1CCC(C(O)(c2ccc3c(c2)OCO3)c2ccc3c(c2)OCO3)CC1` + O=c1cc(-c2cccc3c2Sc2ccccc2S3)oc(N2CCOCC2)c1 [KU55933] (first compound 1 µM, partner dose 1 µM): the “cleaved PARP positive nuclei fraction” value worked out at 109%.
Next, `C/C(O)=C(\C#N)C(=O)Nc1cc(Br)ccc1Br` + O=c1cc(-c2cccc3c2Sc2ccccc2S3)oc(N2CCOCC2)c1 [KU55933] (first compound 2 µM, partner dose 1 µM): 184%; `C=CCn1c(=O)c2cnc(Nc3ccc(N4CCN(C)CC4)cc3)nc2n1-c1cccc(C(C)(C)O)n1` + Cc1cc(SCc2sc(-c3ccc(C(F)(F)F)c(F)c3)nc2C)ccc1OCC(=O)O [GW0742] (first compound 0.02 µM, partner dose 2 µM): 88.3%.
`C[C@]1(c2nc3c(C(N)=O)cccc3[nH]2)CCCN1` [Veliparib] + Cc1cc(SCc2sc(-c3ccc(C(F)(F)F)c(F)c3)nc2C)ccc1OCC(=O)O [GW0742] (first compound 1.4 µM, partner dose 2 µM): the “cleaved PARP positive nuclei fraction” value was determined as 184%.
With `CCN(CC)CCCCNc1ncc2cc(-c3cc(OC)cc(OC)c3)c(NC(=O)NC(C)(C)C)nc2n1` + Cc1cc(SCc2sc(-c3ccc(C(F)(F)F)c(F)c3)nc2C)ccc1OCC(=O)O [GW0742] (first compound 0.1 µM, partner dose 2 µM), the “cleaved PARP positive nuclei fraction” value was 97.4%.
Turning to `O=C(O)c1ccc(-c2c[nH]c3ncc(-c4ccccc4)cc23)cc1C1CCCC1` + Cc1cc(SCc2sc(-c3ccc(C(F)(F)F)c(F)c3)nc2C)ccc1OCC(=O)O [GW0742] (first compound 0.16 µM, partner dose 2 µM), the “cleaved PARP positive nuclei fraction” value is 55.2%.
As to `NC(=O)Nc1cc(-c2cccc(F)c2)sc1C(=O)N[C@H]1CCCNC1` + O=C(Oc1ccc([N+](=O)[O-])cc1)N1CCC(C(O)(c2ccc3c(c2)OCO3)c2ccc3c(c2)OCO3)CC1 [JZL184] (first compound 0.02 µM, partner dose 1 µM), the “cleaved PARP positive nuclei fraction” value came out at 79.1%.
For `O=C(O)C(=O)Nc1sc2c(c1C(=O)O)CCNC2` + O=C(Oc1ccc([N+](=O)[O-])cc1)N1CCC(C(O)(c2ccc3c(c2)OCO3)c2ccc3c(c2)OCO3)CC1 [JZL184] (first compound 1.66667 µM, partner dose 1 µM), the “cleaved PARP positive nuclei fraction” value amounted to 83.7%.
Next, `COc1ccc(-c2ccc3c(N4CCOCC4)nc(N4C[C@@H](C)O[C@@H](C)C4)nc3n2)cc1CO` + Cc1cc(SCc2sc(-c3ccc(C(F)(F)F)c(F)c3)nc2C)ccc1OCC(=O)O [GW0742] (first compound 0.02 µM, partner dose 2 µM): 42.9%.
Next, `O=C(CCCCCCC(=O)Nc1ccccc1)NO` [vorinostat] + Cc1cc(SCc2sc(-c3ccc(C(F)(F)F)c(F)c3)nc2C)ccc1OCC(=O)O [GW0742] (first compound 0.08 µM, partner dose 2 µM): 71%; `COC(=O)c1sccc1S(=O)(=O)Nc1ccc(Nc2ccccc2)cc1OC` + O=C(Oc1ccc([N+](=O)[O-])cc1)N1CCC(C(O)(c2ccc3c(c2)OCO3)c2ccc3c(c2)OCO3)CC1 [JZL184] (first compound 1 µM, partner dose 1 µM): 84.1%; `Nc1cccc2c1CN(C1CCC(=O)NC1=O)C2=O` (stereo unspecified) [lenalidomide] + O=C(Oc1ccc([N+](=O)[O-])cc1)N1CCC(C(O)(c2ccc3c(c2)OCO3)c2ccc3c(c2)OCO3)CC1 [JZL184] (first compound 1 µM, partner dose 1 µM): 66%.
Turning to `Cn1cncc1[C@@](N)(c1ccc(Cl)cc1)c1ccc2c(c1)c(-c1cccc(Cl)c1)cc(=O)n2C` [tipifarnib] + C/C(O)=C(\C#N)C(=O)Nc1cc(Br)ccc1Br [LFM-A13] (first compound 0.01 µM, partner dose 2 µM), the “cleaved PARP positive nuclei fraction” value came to 35.8%.
In the case of `COc1cc(Nc2ncc(F)c(Nc3ccc4c(n3)NC(=O)C(C)(C)O4)n2)cc(OC)c1OC` [Tamatinib] + C/C(O)=C(\C#N)C(=O)Nc1cc(Br)ccc1Br [LFM-A13] (first compound 0.4 µM, partner dose 2 µM), the “cleaved PARP positive nuclei fraction” value was 93.1%.

Values taken from the supplement of paper PMC4604168 (melanoma cell lines).
